Data published in article PMC11079029, “Intramolecular autoinhibition regulates the selectivity of PRPF40A tandem WW domains for proline-rich motifs” (Nature Communications, 2024).
These are yes or no findings as the source states them, for the method shown.

Experiments:
Test in all cases: ITC; MicroCal PEAQ-ITC, 25 °C, 20 mM sodium phosphate pH 6.5, 100 mM NaCl; PRPF40A constructs and GB1-tagged SF1 16-mer peptides; who was in the syringe is not stated for these panels (Fig. 2B, Fig. 5C); one-site model; both purified
[1] = molecular target: T1, GB1-SF1(565-580) 16-mer peptide
T1 sequence: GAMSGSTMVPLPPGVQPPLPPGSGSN

[2] = molecular target: T2, GB1-SF1(342-357) 16-mer peptide
T2 sequence: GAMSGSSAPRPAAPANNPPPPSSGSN

[3] = molecular target: T3, GB1-SF1(387-402) 16-mer peptide
T3 sequence: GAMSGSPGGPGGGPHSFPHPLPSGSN

B1: PRPF40A N-ext-WW12 (residues 56-236) (domain or fragment, UniProt O75400 56-236)
chain: MGHPGMHYAPMGMHPMGQRANMPPVPHGMMPQMMPPMGGPPMGQMPGMMSSVMPGMMMSHMSQASMQPALPPGVNSMDVAAGTASGAKSMWTEHKSPDGRTYYYNTETKQSTWEKPDDLKTPAEQLLSKCPWKEYKSDSGKPYYYNSQTKESRWAKPKELEDLEGYQNTIVAGSLITKSNL
binding [1]: no binding (tested: cell around 20–40 uM, syringe 200–500 uM) | binding [2]: no binding (tested: cell around 20–40 uM, syringe 200–500 uM) | binding [3]: no binding (tested: cell around 20–40 uM, syringe 200–500 uM)
